Experimental data reported in patent publication US20050049198A1, “Method of modulating the activity of calcium channels in cardiac cells and reagents therefor” (priority 2001, published 2005).
These are yes or no findings as the source states them, for the method shown. Some results given as binding are weak or reduced against the parent protein; the word gives no strength. One block for each binder: values may come before it.

Legend:
[1] = target: cardiac ryanodine receptor (RyR2) calcium channel from sheep heart SR vesicles (sheep); assay: no direct binding assay; inferred from Ca2+ release from cardiac SR vesicles
[2] = target: cardiac ryanodine receptor (RyR2) calcium channel from sheep heart SR vesicles (sheep); assay: no direct binding assay; inferred from single channel recording in lipid bilayers with control peptides NB and A1S

binding [1]: binds
B1: SEQ ID NO: 8 peptide (20-mer of SEQ ID NO: 2 with Ser687 replaced by alanine) (peptide)
peptide: TSAQKAKAEERKRRKMARGL

binding [1]: binds | binding [2]: binds
B2: 20-mer peptide of the II-III cytoplasmic loop of skeletal DHPR alpha-1 subunit (Thr671 to Leu690) (peptide)
peptide: TSAQKAKAEERKRRKMSRGL
